Compound in the assay: Nc1ncnc2c1ncn2[C@@H]1O[C@H](COP(=O)(O)OP(=O)(O)NP(=O)(O)O)[C@@H](O)[C@H]1O [adenylyl imidodiphosphate]
Briefly: NP40-soluble protein abundance relative to vehicle (solubility fold change) (ratio); higher = more soluble protein in presence of AMP-PNP. The essentials:
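Values are fold changes against the detergent-processed vehicle, based on vsn-normalised intensities. Jurkat crude lysate was treated at eight concentrations from 0.1 to 10 mM (10 min at room temperature, then 3 min at 37 °C), solubilised with 0.8% NP40 and benzonase, ultracentrifuged and analysed by TMT-labelled LC-MS/MS over three independent experiments.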

By UniProt entry, the sequences of proteins in these tests, tags left out. Where a name states a change or a piece, a line headed by the entry shows the natural chain unless it says otherwise.
UniProt Q96LA8, whole entry, looked up: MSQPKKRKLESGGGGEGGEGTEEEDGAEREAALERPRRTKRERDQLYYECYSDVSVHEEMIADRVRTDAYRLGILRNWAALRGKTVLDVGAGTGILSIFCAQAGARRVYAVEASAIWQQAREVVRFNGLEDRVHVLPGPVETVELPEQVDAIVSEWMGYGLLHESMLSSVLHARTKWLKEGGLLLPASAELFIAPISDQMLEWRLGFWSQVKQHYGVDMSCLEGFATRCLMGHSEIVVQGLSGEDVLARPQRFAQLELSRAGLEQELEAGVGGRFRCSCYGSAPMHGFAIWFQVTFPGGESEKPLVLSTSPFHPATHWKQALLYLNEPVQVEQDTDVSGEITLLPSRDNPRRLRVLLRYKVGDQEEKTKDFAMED
UniProt Q96AC1: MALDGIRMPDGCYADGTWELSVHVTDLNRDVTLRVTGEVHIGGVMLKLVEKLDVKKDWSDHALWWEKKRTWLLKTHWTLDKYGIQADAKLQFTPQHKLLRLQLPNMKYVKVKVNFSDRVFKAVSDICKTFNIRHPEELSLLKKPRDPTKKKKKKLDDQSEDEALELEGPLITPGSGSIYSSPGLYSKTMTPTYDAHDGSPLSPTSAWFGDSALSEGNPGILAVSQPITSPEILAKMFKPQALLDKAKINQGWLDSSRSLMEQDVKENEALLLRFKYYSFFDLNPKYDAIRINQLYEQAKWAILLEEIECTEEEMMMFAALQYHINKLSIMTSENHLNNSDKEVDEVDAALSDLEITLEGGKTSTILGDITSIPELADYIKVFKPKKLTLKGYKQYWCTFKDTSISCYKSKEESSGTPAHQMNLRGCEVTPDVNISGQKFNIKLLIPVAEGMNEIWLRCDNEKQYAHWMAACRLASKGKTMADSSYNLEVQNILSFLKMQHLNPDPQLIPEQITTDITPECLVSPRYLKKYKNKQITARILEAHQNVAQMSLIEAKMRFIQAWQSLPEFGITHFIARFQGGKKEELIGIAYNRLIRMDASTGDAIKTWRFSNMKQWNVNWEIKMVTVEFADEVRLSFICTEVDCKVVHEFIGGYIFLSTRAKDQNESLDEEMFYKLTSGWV
UniProt Q96GW9: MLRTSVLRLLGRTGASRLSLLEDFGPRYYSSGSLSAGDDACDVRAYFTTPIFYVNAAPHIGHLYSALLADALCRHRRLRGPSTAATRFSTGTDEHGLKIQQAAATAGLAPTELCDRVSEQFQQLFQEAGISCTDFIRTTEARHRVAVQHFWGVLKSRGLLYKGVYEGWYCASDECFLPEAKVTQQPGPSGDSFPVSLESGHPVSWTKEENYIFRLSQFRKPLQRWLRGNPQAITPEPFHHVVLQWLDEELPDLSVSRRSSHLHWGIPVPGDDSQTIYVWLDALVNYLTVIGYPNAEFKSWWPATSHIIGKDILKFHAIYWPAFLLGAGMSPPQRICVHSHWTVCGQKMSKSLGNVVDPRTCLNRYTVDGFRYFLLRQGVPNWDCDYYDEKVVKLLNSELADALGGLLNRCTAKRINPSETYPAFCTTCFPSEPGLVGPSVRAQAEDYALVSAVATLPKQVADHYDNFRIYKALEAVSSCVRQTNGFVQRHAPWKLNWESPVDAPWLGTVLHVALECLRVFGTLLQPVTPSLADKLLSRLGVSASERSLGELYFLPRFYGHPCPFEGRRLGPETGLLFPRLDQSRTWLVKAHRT
UniProt Q96CW5, whole entry: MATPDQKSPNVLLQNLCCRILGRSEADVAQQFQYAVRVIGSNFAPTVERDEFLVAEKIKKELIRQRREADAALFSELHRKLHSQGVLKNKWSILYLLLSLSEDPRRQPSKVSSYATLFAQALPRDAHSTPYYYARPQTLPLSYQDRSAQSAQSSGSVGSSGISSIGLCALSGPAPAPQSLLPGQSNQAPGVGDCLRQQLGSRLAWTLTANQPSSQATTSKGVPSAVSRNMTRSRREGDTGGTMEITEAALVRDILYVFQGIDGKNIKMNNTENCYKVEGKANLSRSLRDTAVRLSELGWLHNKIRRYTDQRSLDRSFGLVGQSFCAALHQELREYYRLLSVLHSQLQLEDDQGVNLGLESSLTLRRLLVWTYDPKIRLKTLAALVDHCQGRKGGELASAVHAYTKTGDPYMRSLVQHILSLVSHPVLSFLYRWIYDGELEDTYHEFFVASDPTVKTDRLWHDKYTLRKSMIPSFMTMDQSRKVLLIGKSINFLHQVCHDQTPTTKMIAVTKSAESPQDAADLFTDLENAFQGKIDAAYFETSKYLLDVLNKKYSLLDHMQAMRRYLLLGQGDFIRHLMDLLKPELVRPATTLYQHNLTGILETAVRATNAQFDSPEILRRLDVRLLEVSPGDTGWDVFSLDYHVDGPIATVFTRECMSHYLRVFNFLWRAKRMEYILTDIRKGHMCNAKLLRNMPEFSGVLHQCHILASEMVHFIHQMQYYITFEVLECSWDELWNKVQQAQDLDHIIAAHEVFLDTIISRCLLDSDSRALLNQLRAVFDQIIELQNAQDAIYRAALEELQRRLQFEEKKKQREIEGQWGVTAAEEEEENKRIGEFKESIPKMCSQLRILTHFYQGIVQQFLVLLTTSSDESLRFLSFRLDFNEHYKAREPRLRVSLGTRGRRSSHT
UniProt Q96A65: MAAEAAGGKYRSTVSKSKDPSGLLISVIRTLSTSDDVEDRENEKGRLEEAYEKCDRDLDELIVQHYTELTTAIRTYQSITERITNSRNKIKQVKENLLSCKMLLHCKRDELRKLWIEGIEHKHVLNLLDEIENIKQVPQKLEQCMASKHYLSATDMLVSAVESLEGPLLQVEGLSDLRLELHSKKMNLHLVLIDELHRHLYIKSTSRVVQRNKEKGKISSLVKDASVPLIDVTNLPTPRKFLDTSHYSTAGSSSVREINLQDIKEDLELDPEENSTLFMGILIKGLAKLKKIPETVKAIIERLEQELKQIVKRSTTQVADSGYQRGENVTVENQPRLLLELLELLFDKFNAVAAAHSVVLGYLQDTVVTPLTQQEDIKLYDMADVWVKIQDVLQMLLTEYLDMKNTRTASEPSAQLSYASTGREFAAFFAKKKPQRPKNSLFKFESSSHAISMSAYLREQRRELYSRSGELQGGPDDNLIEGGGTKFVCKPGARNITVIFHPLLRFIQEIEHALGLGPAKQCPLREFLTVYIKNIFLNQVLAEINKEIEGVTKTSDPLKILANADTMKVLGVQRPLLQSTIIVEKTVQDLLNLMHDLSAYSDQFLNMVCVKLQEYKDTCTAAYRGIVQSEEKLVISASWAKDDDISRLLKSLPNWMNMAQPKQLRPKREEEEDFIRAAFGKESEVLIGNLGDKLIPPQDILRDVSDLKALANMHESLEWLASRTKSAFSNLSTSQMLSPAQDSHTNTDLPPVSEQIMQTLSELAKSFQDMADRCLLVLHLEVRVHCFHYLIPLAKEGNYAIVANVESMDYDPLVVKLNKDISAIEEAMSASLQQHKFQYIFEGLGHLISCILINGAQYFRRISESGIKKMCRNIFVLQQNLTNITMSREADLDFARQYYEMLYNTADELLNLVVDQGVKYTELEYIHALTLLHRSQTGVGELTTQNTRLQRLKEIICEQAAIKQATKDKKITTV
UniProt Q96DZ1: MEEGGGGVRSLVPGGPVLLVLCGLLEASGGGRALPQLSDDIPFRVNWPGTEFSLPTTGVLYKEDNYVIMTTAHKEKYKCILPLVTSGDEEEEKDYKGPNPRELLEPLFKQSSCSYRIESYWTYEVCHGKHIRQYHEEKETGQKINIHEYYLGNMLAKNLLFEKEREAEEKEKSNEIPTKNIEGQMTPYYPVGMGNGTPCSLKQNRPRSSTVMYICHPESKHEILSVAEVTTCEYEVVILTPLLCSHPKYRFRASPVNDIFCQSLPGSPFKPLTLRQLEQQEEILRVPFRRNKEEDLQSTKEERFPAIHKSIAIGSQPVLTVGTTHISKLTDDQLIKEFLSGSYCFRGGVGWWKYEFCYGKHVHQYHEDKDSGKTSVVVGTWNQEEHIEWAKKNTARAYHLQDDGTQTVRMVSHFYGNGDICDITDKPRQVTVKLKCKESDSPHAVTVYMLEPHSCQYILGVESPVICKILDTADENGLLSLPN
UniProt Q96A49: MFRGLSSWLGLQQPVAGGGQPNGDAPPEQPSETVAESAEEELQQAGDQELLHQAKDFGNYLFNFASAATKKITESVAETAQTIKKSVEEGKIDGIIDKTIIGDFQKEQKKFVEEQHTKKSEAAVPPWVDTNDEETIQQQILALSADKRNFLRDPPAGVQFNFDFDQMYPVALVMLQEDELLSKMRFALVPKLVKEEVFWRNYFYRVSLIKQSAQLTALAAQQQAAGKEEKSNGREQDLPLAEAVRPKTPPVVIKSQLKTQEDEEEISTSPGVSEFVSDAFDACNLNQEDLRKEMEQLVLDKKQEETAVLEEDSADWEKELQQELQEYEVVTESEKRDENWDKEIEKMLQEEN
UniProt Q969R8: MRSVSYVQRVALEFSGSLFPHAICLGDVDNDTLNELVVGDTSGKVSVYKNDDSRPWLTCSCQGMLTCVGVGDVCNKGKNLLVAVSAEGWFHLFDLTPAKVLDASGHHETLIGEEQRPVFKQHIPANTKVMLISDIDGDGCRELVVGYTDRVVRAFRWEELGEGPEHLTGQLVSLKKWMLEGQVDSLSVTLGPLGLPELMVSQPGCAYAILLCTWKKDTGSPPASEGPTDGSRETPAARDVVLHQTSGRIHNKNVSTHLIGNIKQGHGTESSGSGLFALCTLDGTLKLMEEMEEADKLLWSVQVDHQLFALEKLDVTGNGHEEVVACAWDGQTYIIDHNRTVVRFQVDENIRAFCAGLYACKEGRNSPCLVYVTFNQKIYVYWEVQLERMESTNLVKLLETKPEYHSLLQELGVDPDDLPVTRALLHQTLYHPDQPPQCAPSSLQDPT
UniProt Q96FA3: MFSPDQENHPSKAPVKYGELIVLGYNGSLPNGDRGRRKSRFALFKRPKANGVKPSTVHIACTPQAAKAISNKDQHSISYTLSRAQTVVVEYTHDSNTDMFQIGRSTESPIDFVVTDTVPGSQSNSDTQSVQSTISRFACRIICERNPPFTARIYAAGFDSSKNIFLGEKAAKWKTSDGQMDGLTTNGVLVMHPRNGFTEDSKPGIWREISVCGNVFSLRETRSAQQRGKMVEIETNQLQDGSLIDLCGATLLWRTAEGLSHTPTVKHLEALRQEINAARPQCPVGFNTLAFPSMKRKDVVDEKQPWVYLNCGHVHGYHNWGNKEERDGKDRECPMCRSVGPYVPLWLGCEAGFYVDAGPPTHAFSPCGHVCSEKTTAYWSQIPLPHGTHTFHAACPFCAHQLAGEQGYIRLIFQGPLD
UniProt Q96EM0: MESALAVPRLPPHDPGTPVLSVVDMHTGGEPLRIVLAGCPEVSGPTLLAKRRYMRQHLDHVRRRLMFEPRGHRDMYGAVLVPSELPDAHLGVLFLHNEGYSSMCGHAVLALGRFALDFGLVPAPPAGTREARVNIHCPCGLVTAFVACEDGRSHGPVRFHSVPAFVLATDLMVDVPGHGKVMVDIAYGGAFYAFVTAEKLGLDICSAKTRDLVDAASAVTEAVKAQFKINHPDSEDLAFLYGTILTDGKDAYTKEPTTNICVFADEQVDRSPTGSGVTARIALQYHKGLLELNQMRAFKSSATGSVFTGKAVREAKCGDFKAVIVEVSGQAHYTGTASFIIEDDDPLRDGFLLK
UniProt Q96MW1: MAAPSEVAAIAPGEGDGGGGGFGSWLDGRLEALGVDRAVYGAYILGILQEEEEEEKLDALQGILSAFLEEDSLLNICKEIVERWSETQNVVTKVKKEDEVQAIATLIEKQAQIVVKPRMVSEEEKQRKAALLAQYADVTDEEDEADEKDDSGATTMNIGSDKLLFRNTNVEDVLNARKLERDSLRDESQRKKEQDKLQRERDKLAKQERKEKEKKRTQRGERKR
UniProt Q93034, whole entry: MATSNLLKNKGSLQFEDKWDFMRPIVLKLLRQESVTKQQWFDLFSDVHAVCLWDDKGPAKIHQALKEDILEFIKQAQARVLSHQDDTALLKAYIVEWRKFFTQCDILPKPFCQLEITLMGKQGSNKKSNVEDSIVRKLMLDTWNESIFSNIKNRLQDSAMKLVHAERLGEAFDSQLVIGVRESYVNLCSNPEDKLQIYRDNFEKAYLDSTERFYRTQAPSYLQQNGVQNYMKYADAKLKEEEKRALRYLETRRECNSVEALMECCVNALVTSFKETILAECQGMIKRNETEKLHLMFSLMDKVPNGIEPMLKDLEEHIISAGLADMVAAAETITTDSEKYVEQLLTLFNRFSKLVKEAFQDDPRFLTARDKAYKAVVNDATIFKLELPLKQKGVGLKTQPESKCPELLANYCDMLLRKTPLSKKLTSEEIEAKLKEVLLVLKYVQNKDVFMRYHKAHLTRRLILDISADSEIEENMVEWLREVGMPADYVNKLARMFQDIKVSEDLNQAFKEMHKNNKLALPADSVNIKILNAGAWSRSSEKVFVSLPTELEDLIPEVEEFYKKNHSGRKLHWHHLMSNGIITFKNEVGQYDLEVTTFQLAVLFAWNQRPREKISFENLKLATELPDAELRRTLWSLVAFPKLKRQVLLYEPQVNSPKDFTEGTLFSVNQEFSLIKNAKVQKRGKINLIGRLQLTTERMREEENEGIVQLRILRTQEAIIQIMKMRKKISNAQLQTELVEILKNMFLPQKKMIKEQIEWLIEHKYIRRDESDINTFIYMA

± gives the standard deviation of the averaged measurements. The list shows a part of the results, in another mix than the full data. Small differences around the control level are noise.

For the target IPO9 (UniProt Q96P70), the NP40-soluble protein abundance is, setting by setting: (concentration: 0.1mM) 1.04 ± 0.027; (concentration: 0.5mM) 1.01 ± 0.018.

In the case of USP7 (UniProt Q93009), the NP40-soluble protein abundance (concentration: 0.1mM) is 1 ± 0.028 and the NP40-soluble protein abundance (concentration: 0.5mM) is 0.991 ± 0.059.

Consider UniProt Q96BN8, for which the NP40-soluble protein abundance (concentration: 0.1mM) stood at 1.013 ± 0.0076 and the NP40-soluble protein abundance (concentration: 0.5mM) came out at 1.01 ± 0.033.

For UniProt Q92997 and related entries, the NP40-soluble protein abundance runs as follows: (concentration: 0.1mM) 1.03 ± 0.016; (concentration: 0.5mM) 1.01 ± 0.038.

Consider UniProt Q96GN5 and related entries, for which the NP40-soluble protein abundance runs as follows: (concentration: 0.1mM) 0.989 ± 0.032; (concentration: 0.5mM) 1 ± 0.031.

On to UniProt Q96EH3, for which the NP40-soluble protein abundance reads like this: (concentration: 0.1mM) 1 ± 0.039; (concentration: 0.5mM) 1.03 ± 0.028.

For the target UniProt Q96BR5, the NP40-soluble protein abundance worked out at 0.982 ± 0.043 (concentration: 0.1mM) and 1.03 ± 0.052 (concentration: 0.5mM).

As to RAB39B (UniProt Q96DA2), the NP40-soluble protein abundance (concentration: 0.1mM) came out at 0.987 ± 0.025 and the NP40-soluble protein abundance (concentration: 0.5mM) was determined as 1 ± 0.039.

Regarding UniProt Q96D96 and related entries, the NP40-soluble protein abundance amounted to 1 ± 0.04 (concentration: 0.1mM) and 1.03 ± 0.076 (concentration: 0.5mM).

For the target ZFR (UniProt Q96KR1), the NP40-soluble protein abundance is, setting by setting: (concentration: 0.1mM) 1.03 ± 0.058; (concentration: 0.5mM) 1.03 ± 0.062.

For UniProt Q96HA8 and related entries, the NP40-soluble protein abundance is, setting by setting: (concentration: 0.1mM) 0.991 ± 0.032; (concentration: 0.5mM) 0.975 ± 0.021.

For the target UniProt Q92974 and related entries, the NP40-soluble protein abundance by setting is: (concentration: 0.1mM) 1.03 ± 0.017; (concentration: 0.5mM) 0.996 ± 0.023.

Consider UniProt Q969M3 and related entries, for which the NP40-soluble protein abundance by setting is: (concentration: 0.1mM) 1.0179 ± 0.00036; (concentration: 0.5mM) 1.02 ± 0.02.

Regarding UniProt Q96K76 and related entries, the NP40-soluble protein abundance is, setting by setting: (concentration: 0.1mM) 0.986 ± 0.029; (concentration: 0.5mM) 0.985 ± 0.05.

As to UniProt Q969V3 and related entries, the NP40-soluble protein abundance turned out to be 1.02 ± 0.018 (concentration: 0.1mM) and 0.974 ± 0.058 (concentration: 0.5mM).

Regarding UniProt Q96LA8 and related entries, the NP40-soluble protein abundance amounted to 0.98092 ± 0.00026 (concentration: 0.1mM) and 0.973 ± 0.0098 (concentration: 0.5mM).

With UniProt Q96IX5, the NP40-soluble protein abundance turned out to be 1.02 ± 0.066 (concentration: 0.1mM) and 1.12 ± 0.15 (concentration: 0.5mM).

ABHD14B (UniProt Q96IU4): the NP40-soluble protein abundance by setting is: (concentration: 0.1mM) 0.988 ± 0.01; (concentration: 0.5mM) 1 ± 0.017.

Turning to UniProt Q96B01 and related entries, the NP40-soluble protein abundance (concentration: 0.1mM) came out at 1 ± 0.029 and the NP40-soluble protein abundance (concentration: 0.5mM) stood at 1.03 ± 0.023.

Turning to UniProt Q96BN2, the NP40-soluble protein abundance runs as follows: (concentration: 0.1mM) 1.02 ± 0.021; (concentration: 0.5mM) 1.03 ± 0.034.

Regarding EMG1 (UniProt Q92979), the NP40-soluble protein abundance by setting is: (concentration: 0.1mM) 1.02 ± 0.012; (concentration: 0.5mM) 1.04 ± 0.06.

On to SNF8 (UniProt Q96H20), for which the NP40-soluble protein abundance reads like this: (concentration: 0.1mM) 0.977 ± 0.023; (concentration: 0.5mM) 0.9883 ± 0.0082.

For the target RILPL2 (UniProt Q969X0), the NP40-soluble protein abundance was 1 ± 0.042 (concentration: 0.1mM) and 0.99 ± 0.056 (concentration: 0.5mM).

For the target UniProt Q96P11 and related entries, the NP40-soluble protein abundance was found to be 1.01 ± 0.018 (concentration: 0.1mM) and 1.01 ± 0.014 (concentration: 0.5mM).

For UniProt Q96B36 and related entries, the NP40-soluble protein abundance is 0.992 ± 0.023 (concentration: 0.1mM) and 1 ± 0.015 (concentration: 0.5mM).

As to Sirt1 (UniProt Q96EB6), the NP40-soluble protein abundance is, setting by setting: (concentration: 0.1mM) 0.972 ± 0.014; (concentration: 0.5mM) 1 ± 0.063.

As for ZNF512B (UniProt Q96KM6), the NP40-soluble protein abundance (concentration: 0.1mM) was determined as 0.981 ± 0.024 and the NP40-soluble protein abundance (concentration: 0.5mM) worked out at 1.02 ± 0.066.

Regarding UniProt Q96AC1 and related entries, the NP40-soluble protein abundance (concentration: 0.1mM) was found to be 1 ± 0.038 and the NP40-soluble protein abundance (concentration: 0.5mM) was determined as 0.983 ± 0.029.

For the target MARS2 (UniProt Q96GW9), the NP40-soluble protein abundance (concentration: 0.1mM) is 1.01 ± 0.026 and the NP40-soluble protein abundance (concentration: 0.5mM) worked out at 1.01 ± 0.075.

Take METTL2A (UniProt Q96IZ6): the NP40-soluble protein abundance is, setting by setting: (concentration: 0.1mM) 0.992 ± 0.013; (concentration: 0.5mM) 1.01 ± 0.012.

With GLMN (UniProt Q92990), the NP40-soluble protein abundance (concentration: 0.1mM) stood at 0.99 ± 0.032 and the NP40-soluble protein abundance (concentration: 0.5mM) was determined as 0.953 ± 0.046.

Regarding UniProt Q96EE3 and related entries, the NP40-soluble protein abundance worked out at 1.04 ± 0.054 (concentration: 0.1mM) and 1.01 ± 0.082 (concentration: 0.5mM).

On to UniProt Q96Q15 and related entries, for which the NP40-soluble protein abundance worked out at 0.984 ± 0.045 (concentration: 0.1mM) and 0.969 ± 0.064 (concentration: 0.5mM).

As for UniProt Q96CW5 and related entries, the NP40-soluble protein abundance came to 1.07 ± 0.046 (concentration: 0.1mM) and 1.03 ± 0.057 (concentration: 0.5mM).

On to CHMP6 (UniProt Q96FZ7), for which the NP40-soluble protein abundance was 1 ± 0.02 (concentration: 0.1mM) and 1.02 ± 0.02 (concentration: 0.5mM).

Regarding RNF25 (UniProt Q96BH1), the NP40-soluble protein abundance turned out to be 0.972 ± 0.054 (concentration: 0.1mM) and 0.992 ± 0.0026 (concentration: 0.5mM).

Regarding LTV1 (UniProt Q96GA3), the NP40-soluble protein abundance (concentration: 0.1mM) is 1.02 ± 0.028 and the NP40-soluble protein abundance (concentration: 0.5mM) was 1.04 ± 0.058.

Turning to UniProt Q96MG7, the NP40-soluble protein abundance (concentration: 0.1mM) was found to be 1.01 ± 0.053 and the NP40-soluble protein abundance (concentration: 0.5mM) came to 0.998 ± 0.073.

With EXOC4 (UniProt Q96A65), the NP40-soluble protein abundance runs as follows: (concentration: 0.1mM) 1.01 ± 0.03; (concentration: 0.5mM) 1.01 ± 0.061.

Take UniProt Q96L50: the NP40-soluble protein abundance is, setting by setting: (concentration: 0.1mM) 1 ± 0.036; (concentration: 0.5mM) 0.977 ± 0.06.

With UniProt Q969U7 and related entries, the NP40-soluble protein abundance by setting is: (concentration: 0.1mM) 0.988 ± 0.04; (concentration: 0.5mM) 0.983 ± 0.033.

As for UniProt Q96K49 and related entries, the NP40-soluble protein abundance (concentration: 0.1mM) stood at 0.965 ± 0.029 and the NP40-soluble protein abundance (concentration: 0.5mM) came to 0.9729 ± 0.0076.

Turning to RSPRY1 (UniProt Q96DX4), the NP40-soluble protein abundance is 1.02 ± 0.026 (concentration: 0.1mM) and 0.986 ± 0.029 (concentration: 0.5mM).

With UniProt Q96JJ7, the NP40-soluble protein abundance reads like this: (concentration: 0.1mM) 1.01 ± 0.021; (concentration: 0.5mM) 0.995 ± 0.014.

With UniProt Q96DZ1, the NP40-soluble protein abundance by setting is: (concentration: 0.1mM) 0.9585 ± 0.0014; (concentration: 0.5mM) 0.97 ± 0.026.

For ZBTB10 (UniProt Q96DT7), the NP40-soluble protein abundance is 1.02 ± 0.017 (concentration: 0.1mM) and 0.992 ± 0.039 (concentration: 0.5mM).

As for PPP1R10 (UniProt Q96QC0), the NP40-soluble protein abundance reads like this: (concentration: 0.1mM) 0.999 ± 0.021; (concentration: 0.5mM) 0.996 ± 0.027.

Consider UniProt Q96GX9 and related entries, for which the NP40-soluble protein abundance (concentration: 0.1mM) stood at 0.986 ± 0.024 and the NP40-soluble protein abundance (concentration: 0.5mM) came out at 0.994 ± 0.024.

For the target SYAP1 (UniProt Q96A49), the NP40-soluble protein abundance (concentration: 0.1mM) came out at 0.957 ± 0.028 and the NP40-soluble protein abundance (concentration: 0.5mM) amounted to 0.998 ± 0.048.

In the case of ITFG2 (UniProt Q969R8), the NP40-soluble protein abundance runs as follows: (concentration: 0.1mM) 0.991 ± 0.025; (concentration: 0.5mM) 0.988 ± 0.034.

For SENP8 (UniProt Q96LD8), the NP40-soluble protein abundance (concentration: 0.1mM) was determined as 1.03 ± 0.013 and the NP40-soluble protein abundance (concentration: 0.5mM) amounted to 1 ± 0.053.

Turning to UniProt Q96K58 and related entries, the NP40-soluble protein abundance reads like this: (concentration: 0.1mM) 1.02 ± 0.057; (concentration: 0.5mM) 1.04 ± 0.067.

On to UniProt Q969P0 and related entries, for which the NP40-soluble protein abundance (concentration: 0.1mM) amounted to 1.009 ± 0.0043 and the NP40-soluble protein abundance (concentration: 0.5mM) was 0.992 ± 0.042.

Regarding UniProt Q96FA3, the NP40-soluble protein abundance reads like this: (concentration: 0.1mM) 1.02 ± 0.028; (concentration: 0.5mM) 0.9763 ± 0.0034.

On to UniProt Q96EM0, for which the NP40-soluble protein abundance (concentration: 0.1mM) is 1.03 ± 0.015 and the NP40-soluble protein abundance (concentration: 0.5mM) was found to be 1.03 ± 0.017.

In the case of DTNBP1 (UniProt Q96EV8), the NP40-soluble protein abundance (concentration: 0.1mM) was 1.01 ± 0.019 and the NP40-soluble protein abundance (concentration: 0.5mM) was 0.996 ± 0.039.

Take UniProt Q96EA4: the NP40-soluble protein abundance by setting is: (concentration: 0.1mM) 0.99 ± 0.021; (concentration: 0.5mM) 0.994 ± 0.027.

As for CCDC43 (UniProt Q96MW1), the NP40-soluble protein abundance is 0.972 ± 0.048 (concentration: 0.1mM) and 0.972 ± 0.06 (concentration: 0.5mM).

CUL5 (UniProt Q93034): the NP40-soluble protein abundance is, setting by setting: (concentration: 0.1mM) 1.02 ± 0.034; (concentration: 0.5mM) 0.983 ± 0.067.

For PDLIM5 (UniProt Q96HC4), the NP40-soluble protein abundance reads like this: (concentration: 0.1mM) 0.977 ± 0.015; (concentration: 0.5mM) 1.008 ± 0.0021.

For RFK (UniProt Q969G6), the NP40-soluble protein abundance is 0.961 ± 0.031 (concentration: 0.1mM) and 1.02 ± 0.031 (concentration: 0.5mM).

With MRPL38 (UniProt Q96DV4), the NP40-soluble protein abundance is, setting by setting: (concentration: 0.1mM) 1.03 ± 0.066; (concentration: 0.5mM) 0.978 ± 0.091.

The values are drawn from the supplement of paper PMC6411743.
